Test results reported in article PMC9837762.
No constants are given. Whether binding was seen depends on the method and setting. Binding seen in cells or lysates may run through a third protein. Some entries that bind do so weakly or less than the wild type. Tags and fused reporters may be left off the sequences shown.

Chains of the proteins cited; added tags and fusions are not shown.
UniProt Q7Z434: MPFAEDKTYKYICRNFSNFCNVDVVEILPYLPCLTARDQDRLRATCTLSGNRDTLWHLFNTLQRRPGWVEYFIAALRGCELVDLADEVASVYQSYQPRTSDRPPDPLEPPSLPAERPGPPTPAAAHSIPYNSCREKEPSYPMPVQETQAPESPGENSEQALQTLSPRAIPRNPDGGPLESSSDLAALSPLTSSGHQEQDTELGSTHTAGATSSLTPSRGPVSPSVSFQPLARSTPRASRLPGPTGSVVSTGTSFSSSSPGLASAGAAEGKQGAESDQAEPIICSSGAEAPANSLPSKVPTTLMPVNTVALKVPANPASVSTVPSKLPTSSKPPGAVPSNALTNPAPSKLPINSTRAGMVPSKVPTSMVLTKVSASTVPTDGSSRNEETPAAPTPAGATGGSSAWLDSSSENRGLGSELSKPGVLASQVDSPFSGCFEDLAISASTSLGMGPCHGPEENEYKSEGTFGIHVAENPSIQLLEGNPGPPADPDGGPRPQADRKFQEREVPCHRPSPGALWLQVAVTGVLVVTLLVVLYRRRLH

Molecular target: T1, HA-MDA5 (melanoma differentiation–associated protein 5) (UniProt Q9BYX4)
T1 sequence: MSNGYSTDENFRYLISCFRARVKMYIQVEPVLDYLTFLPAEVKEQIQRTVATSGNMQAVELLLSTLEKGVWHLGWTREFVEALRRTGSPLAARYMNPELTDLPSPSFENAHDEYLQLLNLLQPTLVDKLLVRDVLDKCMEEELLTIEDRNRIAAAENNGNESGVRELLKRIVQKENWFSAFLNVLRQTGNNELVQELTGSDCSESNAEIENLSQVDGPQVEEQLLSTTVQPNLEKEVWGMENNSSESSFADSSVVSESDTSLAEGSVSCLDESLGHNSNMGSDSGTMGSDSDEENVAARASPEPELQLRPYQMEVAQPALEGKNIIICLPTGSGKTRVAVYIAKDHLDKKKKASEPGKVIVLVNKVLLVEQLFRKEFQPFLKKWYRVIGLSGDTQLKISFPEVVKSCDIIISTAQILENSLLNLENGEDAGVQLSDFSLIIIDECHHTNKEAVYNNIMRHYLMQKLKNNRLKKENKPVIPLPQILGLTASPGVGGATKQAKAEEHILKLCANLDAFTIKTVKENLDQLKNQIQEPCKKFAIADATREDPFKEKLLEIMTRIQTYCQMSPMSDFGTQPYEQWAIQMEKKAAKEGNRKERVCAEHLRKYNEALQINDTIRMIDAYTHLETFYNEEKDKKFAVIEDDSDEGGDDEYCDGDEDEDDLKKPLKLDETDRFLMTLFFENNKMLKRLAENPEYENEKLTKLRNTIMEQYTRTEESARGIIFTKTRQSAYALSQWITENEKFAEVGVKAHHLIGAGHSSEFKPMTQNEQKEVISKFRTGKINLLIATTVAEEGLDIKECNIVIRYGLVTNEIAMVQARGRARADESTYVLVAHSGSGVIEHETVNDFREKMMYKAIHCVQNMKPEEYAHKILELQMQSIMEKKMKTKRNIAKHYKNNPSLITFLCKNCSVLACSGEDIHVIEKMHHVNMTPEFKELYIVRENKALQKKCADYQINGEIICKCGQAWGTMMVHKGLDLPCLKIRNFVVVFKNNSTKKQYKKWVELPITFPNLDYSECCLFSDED
Experiment: co-IP

For “Myc-MAVS (mitochondrial antiviral signaling protein) (from UniProt Q7Z434 1-540)”, which binding is on record?
Its binding is “binds”.
